PubChem BioAssay AID504793, Drosophila RNAi Screening Center | 2011
In all, the deposit lists about 23,000 reagents; shown is an unselected part of those that have a named target and a result. Over the whole deposit, 62 (0.27%) are marked active. 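Calls come from follow-up tests whose scores are not deposited, so confirmed genes may have low counts here; counts are not normalised per plate.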 Raw values are not corrected between plates. A plus sign joins genes that one reagent is predicted to hit.

- Aim: 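Knock-downs allowing continued mitosis even though DNA is damaged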 (primary screen)
- Cell system: Drosophila S2R+ cells
- Reagent: long dsRNA against Drosophila genes, about 0.25 µg dsRNA per well
- Time to read-out: 4 days of dsRNA, then 4 hours of drug before read-out
- Challenge: doxorubicin 0.5 µM for 4 hours to cause double-strand breaks, in cells also given a low, harmless dose of dsRNA against nbs to sensitise the assay
- Measured: 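Per-well count of mitotic cells stained for phospho-histone H3 after doxorubicin exposure, used as mitotic index; counts are raw and not normalised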
- Direction: mitotic cells: higher = more cells in mitosis, weaker G2 arrest
- Call rule: 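Genes are called active only when high mitotic counts were reproduced with independent dsRNAs and mitosis was checked for delay without damage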
- Calls: active = confirmed in follow-up tests; inactive = not confirmed

Gene	amplicon	mitotic cells, replicate 1	mitotic cells, replicate 2	Outcome
CG34309	DRSC14838	5		inactive
Lasp	DRSC10379	7		inactive
Lasp	DRSC23555	4		inactive
Pdrg1	DRSC28485	10		inactive
Ppm1	DRSC08260	6		inactive
Ppm1	DRSC27792	3		inactive
CR31427	DRSC22675	8		inactive
CR31427	DRSC26472	11		inactive
CG30158	DRSC04956	3		inactive
CG30158	DRSC04974	3		inactive
CG30158	DRSC04975	7		inactive
CG30158	DRSC05012	7		inactive
GAPsec	DRSC10564	11		inactive
GAPsec	DRSC26128	4		inactive
CG32262	DRSC08165	8		inactive
CG32262	DRSC29141	5		inactive
CG30283	DRSC04071	9		inactive
CG30283	DRSC24411	12		inactive
Uhg3	DRSC22963	5	9	inactive
CG7692	DRSC10902	7		inactive
CG7692	DRSC24040	4		inactive
CG31882	DRSC01084	3		inactive
CG2225	DRSC03722	6		inactive
CG2225	DRSC03723	7		inactive
Dnz1	DRSC03317	4		inactive
Dnz1	DRSC24926	13		inactive
Tsp66E	DRSC09683	7		inactive
CG4036	DRSC02735	4		inactive
CG8907	DRSC16453	7		inactive
CG8907	DRSC27500	4		inactive
Tektin-A	DRSC01921	5		inactive
mRpS22	DRSC14488	7		inactive
mRpS22	DRSC28355	4		inactive
ato	DRSC16904	4		inactive
CG4374	DRSC15570	9		inactive
CG4374	DRSC27482	6		inactive
loco	DRSC15202	9		inactive
loco	DRSC16989	8		inactive
loco	DRSC27695	4		inactive
CG15772	DRSC18078	12		inactive
CG13676	DRSC10035	3		inactive
CG8407	DRSC07167	3		inactive
CG43102	DRSC14797	9		inactive
CG43102	DRSC16239	11		inactive
CG43102	DRSC28809	2		inactive
Usp20-33	DRSC07196	2		inactive
CG12084	DRSC08247	8		inactive
CG12084	DRSC26814	5		inactive
IntS2	DRSC20094	9		inactive
Lip4	DRSC02930	2		inactive
CG9784	DRSC20210	6		inactive
CG9784	DRSC28204	8		inactive
sbm	DRSC20185	15		inactive
GstE14	DRSC06881	7		inactive
GstE14	DRSC26779	5		inactive
CG13074	DRSC09957	5		inactive
CG34342	DRSC09756	4		inactive
CG34342	DRSC22515	8		inactive
CG34342	DRSC24023	3		inactive
Vm32E	DRSC03474	8		inactive
Vm32E	DRSC25156	7		inactive
Acph-1	DRSC14103	13		inactive
CG32374	DRSC10986	6		inactive
CG3483	DRSC04371	10		inactive
CG7950 + Rpp14a	DRSC16353	12		inactive
CG7950 + Rpp14a	DRSC28664	1		inactive
nonA-l	DRSC17017	5		inactive
nonA-l	DRSC25387	4		inactive
XRCC1	DRSC18729	9		inactive
XRCC1	DRSC28480	4		inactive
Pur-alpha	DRSC17166	8		inactive
flw	DRSC17992	8		inactive
flw	DRSC18774	22		inactive
flw	DRSC25161	9		inactive
CG4408	DRSC15574	4		inactive
sick	DRSC02090	1		inactive
sick	DRSC02301	7		inactive
sick	DRSC02302	6		inactive
sick	DRSC02306	4		inactive
Or98b	DRSC16775	12		inactive
Or98b	DRSC21751			inactive
CG14245	DRSC14740	15		inactive
Ppcs	DRSC14127	7		inactive
CG14160	DRSC10161	4		inactive
CG33191	DRSC27362	6		inactive
Coa7	DRSC20967	11		inactive
Coa7	DRSC27224	5		inactive
CG13868	DRSC06427	6		inactive
Ir52c	DRSC21801	8		inactive
Ir52c	DRSC27570	6		inactive
CG14500	DRSC06471	10		inactive
CG7990	DRSC19296	7		inactive
CG7990	DRSC23195	6		inactive
CG7990	DRSC26580	9		inactive
CG32650	DRSC19899	4		inactive
CG33255 (retired record) + hpRNA:CR32205 + hpRNA:CR32207	DRSC09617	22		inactive
Idgf5	DRSC06919	5		inactive
Idgf5	DRSC26392	13		inactive
CG13871	DRSC06430	3		inactive
CG13871	DRSC27979	8		inactive
CG31663	DRSC00078	18		inactive
CG31663	DRSC00389	9		inactive
CG31663	DRSC00390	13		inactive
CG31663	DRSC00393	9		inactive
mei-P22	DRSC11366	7		inactive
up	DRSC20382	9		inactive
up	DRSC28798	2		inactive
CG11438	DRSC11660	1		inactive
Ibf1	DRSC16419	9		inactive
CG6108 (retired record)	DRSC02929	5		inactive
Andorra	DRSC19475	5		inactive
CG32333	DRSC08627	6		inactive
CG32333	DRSC08629	4		inactive
Nost	DRSC18037	12		inactive
Nost	DRSC18338	13		inactive
Nost	DRSC26627	3		inactive
Jhbp6	DRSC11714	5		inactive
Jhbp6	DRSC26892	7		inactive
snRNA:U11	DRSC36526	13		inactive
Srg1	DRSC14640	7		inactive
Srg1	DRSC29445	3		inactive
Cpr65Eb	DRSC11026	4		inactive
Cpr65Eb	DRSC23758	7		inactive
Rca1	DRSC03407	3		inactive
CG5388	DRSC15789	2		inactive
CG32040	DRSC22459	13		inactive
Hmg-2	DRSC04554	6		inactive
Hmg-2	DRSC25355	15		inactive
CG12540	DRSC19471	12		inactive
mRpL19	DRSC16367	8		inactive
mRpL19	DRSC21618	19		inactive
mRpL19	DRSC26104	8		inactive
CYLD	DRSC02870	5		inactive
Kaz	DRSC14637	9		inactive
CG11378	DRSC18627	6		inactive
CG11378	DRSC29720	3		inactive
Muc18B	DRSC21644	9		inactive
Muc18B	DRSC28889	1		inactive
CG10376	DRSC02049	3		inactive
CG10376	DRSC26744	6		inactive

Not a retest: 19 of the entries above.
Gene	amplicon	mitotic cells, replicate 1	mitotic cells, replicate 2	Outcome
CG31663	DRSC00078	18		inactive
CG31663	DRSC00389	9		inactive
CG31663	DRSC00390	13		inactive
CG31663	DRSC00393	9		inactive
mei-P22	DRSC11366	7		inactive
up	DRSC20382	9		inactive
up	DRSC28798	2		inactive
CG11438	DRSC11660	1		inactive
Ibf1	DRSC16419	9		inactive
CG6108 (retired record)	DRSC02929	5		inactive
Andorra	DRSC19475	5		inactive
CG32333	DRSC08627	6		inactive
CG32333	DRSC08629	4		inactive
Nost	DRSC18037	12		inactive
Nost	DRSC18338	13		inactive
Nost	DRSC26627	3		inactive
Jhbp6	DRSC11714	5		inactive
Jhbp6	DRSC26892	7		inactive
snRNA:U11	DRSC36526	13		inactive
